{"source": "PubChem BioAssay AID1347076", "about": "(National Center for Advancing Translational Sciences (NCATS), 2019)", "note": "The whole screen tested about 400,000 compounds, of which about 13,000 (3.2%) were called active. Inconclusive results, whose numbers are uncertain, are shown with a selection of clear calls. Calls come from the whole dose curve; as a rule, active = well fitted cell-killing curve with a large enough effect; inconclusive = small, poorly fitted or top-dose-only effect, or effect the other way; inactive = flat fitted curve, though single readings scatter. Potencies of inconclusive entries are doubtful fits and often do not repeat. % is set by controls: 0 for no effect and ±100 for the full control effect; potency is the fitted concentration of half-maximal effect."}
{"experiment": "qHTS assay for MDR1-selective chemotherapeutics: Primary screen using the drug-selected MDR subline cells KB-V1; note: nearly all actives have a fitted effect of over 60% in size", "conditions": "KB-V1 MDR cells viability, CellTiter-Glo, 72 h; activity change, negative = cytotoxicity: at 46.1 µM (top of the series)", "outline": "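Drug-selected KB-V1 cells, grown in DMEM lacking phenol red with 10% FBS, receive compound titrations; after three days at 37 degrees C, surviving cell ATP is quantified by CellTiter-Glo luminescence and responses normalized and curve-fitted.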"}
{"molecule": "CCCN1CCN(CCCNC(=O)c2cc3c(=O)n(CC)c4ccccc4c3s2)CC1", "Potency": "inconclusive: 0.58 µM [cytotoxic, partial curve, poor fit]"}
{"molecule": "S=C(NCc1ccco1)N1CCN(Cc2ccc(Cl)cc2Cl)CC1", "Potency": "inconclusive: 29.1 µM [cytotoxic, single point]"}
{"molecule": "Cc1ccc(-n2c(Cc3ccccc3)n[nH]c2=S)cc1", "Potency": "inconclusive: 23.1 µM [cytotoxic, single point]"}
{"molecule": "Cc1ccc(NC(=O)CN2C(=O)S/C(=C\\c3cc(C)n(-c4cccc(C(=O)O)c4)c3C)C2=O)cc1", "Potency": "inconclusive: 2.59 µM [rising, full curve, poor fit]"}
{"molecule": "Fc1ccccc1OCC1CCCN(Cc2nc(CC3CC3)no2)C1", "note": "(stereo not drawn)", "activity change, negative = cytotoxicity": "inactive: 13.4%"}
{"molecule": "CCc1n[nH]c(=O)c2cc3cc(OC)ccc3n12", "Potency": "inconclusive: 25.9 µM [cytotoxic, single point]"}
{"molecule": "Cc1ccc(-n2c(SCc3ccccc3F)nc3[nH]ncc3c2=O)cc1Cl", "activity change, negative = cytotoxicity": "inactive: -1.03%"}
{"molecule": "CC(C)(C)c1ccc(Oc2ccc(NC(=O)c3ccccc3C(=O)O)cn2)cc1", "Potency": "inconclusive: 18.4 µM [rising, partial curve, poor fit]"}
{"molecule": "Cc1cc(C(=O)N/N=C/c2ccc([N+](=O)[O-])cc2)c2ccccc2n1", "activity change, negative = cytotoxicity": "inactive: -14.3%"}
{"molecule": "COc1cccc(NC(=O)c2nc(SC)ncc2Cl)c1", "Potency": "inconclusive: 16.4 µM [cytotoxic, single point]"}
{"molecule": "Cc1ccc2ccc(C(Nc3ccccc3)c3ccccc3)c(O)c2n1", "note": "(stereo not drawn)", "Potency": "inconclusive: 4.61 µM [cytotoxic, partial curve]"}
{"molecule": "O=C(NCc1ccccc1)C1CCN(S(=O)(=O)Cc2ccccc2)CC1", "activity change, negative = cytotoxicity": "inactive: 0%"}
{"molecule": "CC1(C)Oc2ccc3ccc(=O)oc3c2C(/C=N/O)C1=O", "note": "(stereo not drawn)", "activity change, negative = cytotoxicity": "inactive: 1.93%"}
{"molecule": "Cc1ccc(NC(=O)COC(=O)c2nn(-c3ccc(Cl)cc3)cc2O)cc1", "activity change, negative = cytotoxicity": "inactive: 2.69%"}
{"molecule": "CCOC(=O)c1c(C2CCN(C(=O)OCC)CC2)nc2ccccn12", "Potency": "inconclusive: 14.6 µM [cytotoxic, partial curve, poor fit]"}
{"molecule": "O=C1NC[C@H](c2ccccc2)N(CC2CCCCC2)C1=O", "Potency": "inconclusive: 29.1 µM [rising, single point]"}
{"molecule": "COC(=O)c1cc(-c2cc(OC)ccc2OC)nc2c1c(=O)n(C)c(=O)n2Cc1ccccc1", "Potency": "inconclusive: 25.9 µM [cytotoxic, single point]"}
{"molecule": "COc1ccc(OC)c(-c2nnc3n2N=C(c2ccc(OC)c(OC4CCOC4)c2)CS3)c1", "note": "(stereo not drawn)", "Potency": "inconclusive: 7.31 µM [cytotoxic, partial curve]"}
{"molecule": "CCN(CC)S(=O)(=O)c1cccc(NC(=O)c2ccccc2Br)c1", "Potency": "inconclusive: 8.2 µM [cytotoxic, partial curve]"}
{"molecule": "CCc1ccccc1NC(=O)CC1S/C(=N\\c2nccs2)N(CC)C1=O", "note": "(stereo not drawn)", "Potency": "active: 8.2 µM"}
{"molecule": "O=c1cc(CN2CCN(c3ccccc3F)CC2)c2cc3c(cc2o1)CCCC3", "activity change, negative = cytotoxicity": "inactive: 17.6%"}
{"molecule": "CCCN(CC(=O)Nc1cccc(Br)c1)CC(=O)Nc1ccc(F)c(F)c1F", "Potency": "inconclusive: 20.6 µM [cytotoxic, single point]"}
{"molecule": "O=C(N/N=C/c1ccc[nH]1)c1ccccc1O", "Potency": "active: 5.17 µM"}
{"molecule": "O=S(=O)(NCC(c1ccccc1)N1CCNCC1)c1ccc(Cl)cc1", "note": "(stereo not drawn)", "Potency": "inconclusive: 16.4 µM [cytotoxic, single point]"}
{"molecule": "Cc1ccc(C(=O)c2ncc[nH]2)cc1", "activity change, negative = cytotoxicity": "inactive: -3.01%"}
{"molecule": "CCN1CCN(c2nc(N)c([N+](=O)[O-])c(Nc3ccc(C)cc3)n2)CC1", "Potency": "inconclusive: 9.2 µM [cytotoxic, partial curve]"}
{"molecule": "CCCCN(C)CC(O)Cn1cc(/C=C/C(=O)c2ccc(Br)cc2)c2ccccc21", "note": "(stereo not drawn)", "Potency": "inconclusive: 8.2 µM [cytotoxic, partial curve, poor fit]"}
{"molecule": "Cn1cnnc1SCC(=O)Nc1ccc(F)cc1", "Potency": "inconclusive: 16.4 µM [rising, partial curve, poor fit]"}
{"molecule": "CSc1ncnc2ncn(C)c12", "activity change, negative = cytotoxicity": "inactive: 9.95%"}
{"molecule": "CCCN(CCC)C(=S)NC(=O)c1ccc(Cl)cc1Cl", "Potency": "inconclusive: 16.4 µM [cytotoxic, single point]"}
{"molecule": "CCOC(=O)CSc1nc2ccccc2c(=O)n1CCCCCC(=O)NCc1ccco1", "Potency": "inconclusive: 23.1 µM [cytotoxic, single point]"}
{"molecule": "CCC(=O)c1ccc(OCC(=O)N2CCN(S(=O)(=O)c3ccc(Cl)s3)CC2)cc1", "Potency": "inconclusive: 29.1 µM [cytotoxic, single point]"}
{"molecule": "O=C(Nc1nnc(-c2ccccc2Cl)o1)c1ccc(S(=O)(=O)N2CCCCCC2)cc1", "Potency": "active: 8.2 µM"}
{"molecule": "O=C(CSc1nnc(CCCN2C(=O)c3cccc4cccc(c34)C2=O)n1-c1ccccc1)NCCCN1CCOCC1", "activity change, negative = cytotoxicity": "inactive: 6.74%"}
{"molecule": "CC(/C=C\\C=C\\c1ccccc1)=N\\NC(=O)c1cncc(Br)c1", "Potency": "inconclusive: 13 µM [cytotoxic, partial curve]"}
{"molecule": "Cc1cc(C)c2c(n1)nn1c(NCCCN(C)C)cc(C)nc21", "activity change, negative = cytotoxicity": "inactive: -6.27%"}
{"molecule": "COc1ccc(-c2noc(CCC(=O)N3CCN(c4ccc(Cl)cc4)CC3)n2)cc1", "Potency": "inconclusive: 0.651 µM [rising, full curve, poor fit]"}
{"molecule": "CCCCCC(=O)NNC(=S)NC(C)=O", "Potency": "inconclusive: 14.6 µM [cytotoxic, partial curve]"}
{"molecule": "O=C(Cn1cnc2ccccc2c1=O)Nc1ccc2c(c1)OCCO2", "Potency": "inconclusive: 20.6 µM [cytotoxic, single point]"}
{"molecule": "CC1CCN(Cc2c(C(=O)N/N=C/c3ccccc3O)nnn2-c2nonc2N)CC1", "Potency": "inconclusive: 5.8 µM [cytotoxic, partial curve]"}
{"molecule": "OC(COCC1COc2ccccc2O1)CN1CCN(c2ccc(F)cc2)CC1", "note": "(stereo not drawn)", "Potency": "inconclusive: 8.2 µM [cytotoxic, partial curve]"}
{"molecule": "Cc1nn(-c2ccccc2)c2[nH]c(=O)c(CNc3ccc(N4CCOCC4)cc3)cc12", "Potency": "inconclusive: 23.1 µM [cytotoxic, partial curve]"}
{"molecule": "COc1cccc(CNCCc2c[nH]c3ccccc23)c1OCc1ccc(F)cc1", "Potency": "active: 16.4 µM"}
{"molecule": "C[C@H]1CN([C@@H](C)CO)C(=O)c2cccc(NC(=O)Nc3ccc(F)cc3)c2O[C@@H]1CN(C)Cc1ccc(C(=O)O)cc1", "Potency": "inconclusive: 25.9 µM [rising, partial curve, poor fit]"}
{"molecule": "CCCCOc1ccc(/C=N/NC(=O)c2nnn(-c3nonc3N)c2C)cc1", "Potency": "inconclusive: 14.6 µM [rising, partial curve, poor fit]"}
{"molecule": "COCCNc1nc(NCCN2CCNC2=O)c2sccc2n1", "activity change, negative = cytotoxicity": "inactive: 14.4%"}
{"molecule": "Cc1ccc(OCc2nc3ccccc3n2C(C(=O)NC(C)(C)C)c2ccncc2)cc1", "note": "(stereo not drawn)", "Potency": "inconclusive: 2.59 µM [cytotoxic, partial curve, poor fit]"}
{"molecule": "Clc1ccc(OCCn2ccnc2)c2ccccc12", "Potency": "inconclusive: 23.1 µM [cytotoxic, single point]"}
{"molecule": "CCOc1ccccc1CNC(=O)c1cc2c(=O)n(Cc3cccnc3)ccc2nc1C", "activity change, negative = cytotoxicity": "inactive: 12.6%"}
{"molecule": "COc1ccc(C2c3ccc(O)cc3Oc3ncn(Cc4ccco4)c(=N)c32)cc1", "note": "(stereo not drawn)", "activity change, negative = cytotoxicity": "inactive: -25%"}
{"molecule": "CC(=O)[C@@]1(O)C(C)CC2C3C=C(C)C4=Cc5c(cnn5-c5ccccc5)C[C@]4(C)C3C(O)C[C@@]21C", "note": "(stereo partly drawn)", "Potency": "inconclusive: 29.1 µM [cytotoxic, single point]"}
{"molecule": "C=CCN(CC=C)C(=O)C1CCN(Cc2ccc(OCc3ccccc3)cc2)CC1", "Potency": "inconclusive: 2.91 µM [cytotoxic, full curve]"}
{"molecule": "COC1=CC(=O)c2ccccc2C1=O", "Potency": "inconclusive: 18.4 µM [cytotoxic, partial curve, poor fit]"}
{"molecule": "CC1(C(=O)Nc2cccnc2)Cc2c(-c3ccc4c(c3)OCO4)ccnc2O1", "note": "(stereo not drawn)", "Potency": "inconclusive: 25.9 µM [cytotoxic, partial curve, poor fit]"}
{"molecule": "O=C(Nc1ccc(F)cc1)NC1(C(=O)NCc2ccc3c(c2)OCO3)CCCCC1", "Potency": "active: 16.4 µM"}
{"molecule": "Cc1cccc(C)c1N1CCN(C(c2cc3ccccc3o2)c2nnnn2C(C)(C)C)CC1", "note": "(stereo not drawn)", "Potency": "active: 2.59 µM"}
{"molecule": "COc1ccc(/C=C2/SC(=O)NC2=O)cc1", "Potency": "inconclusive: 20.6 µM [cytotoxic, single point]"}
{"molecule": "COc1ccccc1N1CCN(c2ccc3c(c2)S(=O)(=O)c2cccc(C(=O)NCc4cccc(F)c4)c2C3=O)CC1", "activity change, negative = cytotoxicity": "inactive: -2.05%"}
{"molecule": "Cc1[nH]c2ccc(C(=O)OC(C)C(=O)NC3CCCCC3C)cc2c1C", "note": "(stereo not drawn)", "Potency": "inconclusive: 29.1 µM [cytotoxic, single point]"}
{"molecule": "CCN(CC)C(=O)Cn1cc(SCC(=O)NC2CCCC2)c2ccccc21", "Potency": "inconclusive: 29.1 µM [cytotoxic, single point]"}
{"molecule": "CCOc1ccc(NC2=CC(=O)C(=O)c3ccccc32)cc1", "Potency": "active: 4.11 µM"}
{"molecule": "COc1ccc(-c2noc(CSc3ccccc3)n2)cc1OC", "Potency": "inconclusive: 29.1 µM [cytotoxic, single point]"}
{"molecule": "Cc1cccc(CSc2nnc(-c3cccs3)n2Cc2ccco2)c1", "Potency": "inconclusive: 9.2 µM [cytotoxic, partial curve]"}
{"molecule": "CCn1c(SCC(=O)Nc2ccc(OC)c(S(=O)(=O)N3CCCCC3)c2)nnc1C1CC1", "activity change, negative = cytotoxicity": "inactive: 0%"}
{"molecule": "CCOc1cc(/C=N\\Nc2nc(Nc3ccccc3)nc(N3CCOCC3)n2)ccc1OC(=O)c1ccco1", "Potency": "inconclusive: 8.2 µM [cytotoxic, partial curve]"}
{"molecule": "O=[N+]([O-])c1ccc(Sc2ccccn2)nc1", "Potency": "inconclusive: 29.1 µM [rising, single point]"}
{"molecule": "CCN(Cc1nc2ccccc2c(=O)[nH]1)C(=O)c1ccc(C)c(NC(=O)c2ccco2)c1", "activity change, negative = cytotoxicity": "inactive: 0%"}
{"molecule": "CCCN1C(=O)c2cc(C(=O)Nc3cccc(C(C)=O)c3)ccc2C1Nc1cccc(C(C)=O)c1", "note": "(stereo not drawn)", "Potency": "inconclusive: 18.4 µM [cytotoxic, partial curve]"}
